Structures are written as SMILES. This is one part of the list. Repeats are few or missing, and single values can be far off.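 The apoptosis fraction was the count of cleaved-PARP antibody-stained nuclei relative to all DNA-stained nuclei, imaged in 1,536-well plates. Screening doses were set so most cells survived, and baseline and induced cleaved-PARP levels vary greatly across cell lines.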

The test has as its system LB2518-MEL. As to the kind of experiment: cleaved PARP positive nuclei fraction relative to DMSO control; melanoma cells; higher = more apoptosis. The note with it: library dose: low library concentration; 72 h.
Consider `O=C(O)[C@@H]1[O][Sb](=[O])([O][Sb]2(=[O])[O][C@H]([C@H](O)CO)[C@H](O)[C@H](C(=O)O)[O]2)[O][C@H]([C@H](O)CO)[C@@H]1O` (some centres not stated) [stibogluconate] + OCc1c[nH]c2ccccc12 [Indole-3-carbinol] (first compound 2 µM, partner dose 0.8 µM), for which the “cleaved PARP positive nuclei fraction” value is 85.9%. In the case of `C=C(c1ccc(C(=O)O)cc1)c1cc2c(cc1C)C(C)(C)CCC2(C)C` [Bexarotene] + Cn1nnc2c(C(N)=O)ncn2c1=O [temozolomide] (first compound 2 µM, partner dose 2 µM), the “cleaved PARP positive nuclei fraction” value was 171%. Regarding `Nc1ncn([C@H]2C[C@H](O)[C@@H](CO)O2)c(=O)n1` [decitabine] + C[C@]1(c2nc3c(C(N)=O)cccc3[nH]2)CCCN1 [Veliparib] (first compound 0.1 µM, partner dose 1.4 µM), the “cleaved PARP positive nuclei fraction” value worked out at 53.8%. `CN1CCN(c2ccc3nc(-c4c(N)c5c(F)cccc5[nH]c4=O)[nH]c3c2)CC1` [Dovitinib] + Nc1nc(F)nc2c1ncn2[C@@H]1O[C@H](CO)[C@@H](O)[C@@H]1O [fludarabine] (first compound 0.1 µM, partner dose 0.2 µM): the “cleaved PARP positive nuclei fraction” value stood at 53.2%.

Turning to `CO[C@H]1C[C@@H]2CC[C@@H](C)[C@@](O)(O2)C(=O)C(=O)N2CCCC[C@H]2C(=O)O[C@H]([C@H](C)C[C@@H]2CC[C@@H](OCCO)[C@H](OC)C2)CC(=O)[C@H](C)/C=C(\C)[C@@H](O)[C@@H](OC)C(=O)[C@H](C)C[C@H](C)/C=C/C=C/C=C/1C` [everolimus] + Clc1ccc(Nc2nnc(Cc3ccncc3)c3ccccc23)cc1 [vatalanib] (first compound 0.02 µM, partner dose 2 µM), the “cleaved PARP positive nuclei fraction” value was 116%. As to `CO[C@H]1C[C@@H]2CC[C@@H](C)[C@@](O)(O2)C(=O)C(=O)N2CCCC[C@H]2C(=O)O[C@H]([C@H](C)C[C@@H]2CC[C@@H](OCCO)[C@H](OC)C2)CC(=O)[C@H](C)/C=C(\C)[C@@H](O)[C@@H](OC)C(=O)[C@H](C)C[C@H](C)/C=C/C=C/C=C/1C` [everolimus] + C#Cc1cccc(Nc2ncnc3cc(OCCOC)c(OCCOC)cc23)c1 [erlotinib] (first compound 0.02 µM, partner dose 0.8 µM), the “cleaved PARP positive nuclei fraction” value stood at 35.3%. The same measure for `CS(=O)(=O)CCNCc1ccc(-c2ccc3ncnc(Nc4ccc(OCc5cccc(F)c5)c(Cl)c4)c3c2)o1` [lapatinib] + OCc1c[nH]c2ccccc12 [Indole-3-carbinol] (first compound 0.8 µM, partner dose 0.8 µM): 108%. Regarding `C[C@@H](Oc1cc(-c2cnn(C3CCNCC3)c2)cnc1N)c1c(Cl)ccc(F)c1Cl` [Crizotinib] + Nc1ccn([C@@H]2O[C@H](CO)[C@@H](O)C2(F)F)c(=O)n1 [gemcitabine] (first compound 0.2 µM, partner dose 0.0004 µM), the “cleaved PARP positive nuclei fraction” value turned out to be 113%. Take `O=C(O)[C@@H]1[O][Sb](=[O])([O][Sb]2(=[O])[O][C@H]([C@H](O)CO)[C@H](O)[C@H](C(=O)O)[O]2)[O][C@H]([C@H](O)CO)[C@@H]1O` (some centres not stated) [stibogluconate] + COc1ccc(Cl)c(Nc2nc3ccccc3nc2NS(=O)(=O)c2cccc(NC(=O)C(C)(C)N)c2)c1 [XL147] (first compound 2 µM, partner dose 0.8 µM): the “cleaved PARP positive nuclei fraction” value came out at 115%. With `Cc1cc(Nc2cc(N3CCN(C)CC3)nc(/C=C/c3ccccc3)n2)n[nH]1` + C#Cc1cccc(Nc2ncnc3cc(OCCOC)c(OCCOC)cc23)c1 [erlotinib] (first compound 0.04 µM, partner dose 0.8 µM), the “cleaved PARP positive nuclei fraction” value stood at 130%. For the molecule `Nc1ccn([C@@H]2O[C@H](CO)[C@@H](O)C2(F)F)c(=O)n1` [gemcitabine] + COc1ccc(Cl)c(Nc2nc3ccccc3nc2NS(=O)(=O)c2cccc(NC(=O)C(C)(C)N)c2)c1 [XL147] (first compound 0.0004 µM, partner dose 0.8 µM), the “cleaved PARP positive nuclei fraction” value turned out to be 53.6%. The same measure for `Cc1cc(Nc2cc(N3CCN(C)CC3)nc(/C=C/c3ccccc3)n2)n[nH]1` + CNC(=O)c1cc(Oc2ccc(NC(=O)Nc3ccc(Cl)c(C(F)(F)F)c3)cc2)ccn1 [sorafenib] (first compound 0.04 µM, partner dose 0.4 µM): 155%.

The record behind these values is the supplement of paper PMC4604168 (melanoma cell lines).
